Source: ChEMBL document CHEMBL3988442, “University of Dundee, Small-Polar-MMV Screening Library” (2021).

Mtb cholesterol medium: 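Growth of Mycobacterium tuberculosis over 4 days (cholesterol / DPPC medium with tyloxapol); the read-out is not stated. Tested at 50 µM. The record gives no direction; compounds that gave an IC50 in retests scored well above the rest, so higher reads as more growth inhibition. Size under these conditions: about 69,000 compounds, about 370 of them at 50% or above in at least one test.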
Mtb glucose medium: 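Whole-cell growth test on Mycobacterium tuberculosis, read after 3 days in glucose-containing 7H9 medium; the read-out is not stated. Concentration: 50 µM. Direction is inferred from retests: higher values go with more growth inhibition. About 69,000 compounds were tested under these conditions; 1.1% (about 760) showed 50% or more at least once.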

Results are given as percent effect.
How 0% and 100% were set is not recorded. Most values in the screen are low, and negative values occur.
Compounds were drawn at random from those tested, without regard to their results.
Two or more numbers in one place are separate tests of the same structure; such repeats can differ widely.

Cc1ccc(NC(=O)Cn2cc(I)cn2)cc1C read Mtb cholesterol medium: -6.717%; Mtb glucose medium: -13.9%. Result for COCC(=O)Nc1nccn1Cc1ccc(Br)cc1 was Mtb cholesterol medium: 7.906%; Mtb glucose medium: -2.435%. For Cn1c(CS(=O)(=O)Cc2ccc(Cl)cc2)cc(=O)n(C)c1=O the result was Mtb cholesterol medium: 0.05845% and -13.89%; Mtb glucose medium: 10.93%. With COCCCN1CCCC12CCN(c1ncccn1)CC2.O=C(O)C(F)(F)F the screen gave Mtb cholesterol medium: -21.88% and 11.98%; Mtb glucose medium: 11.19% and -7.927%.

With Cc1cc(C2CCCN2C(=O)NCc2cccnc2OC(C)C)on1 (stereo not drawn) the screen gave Mtb cholesterol medium: 14.19%; Mtb glucose medium: -0.2175%. FC(F)(F)C1CN(Cc2cnc3c(-c4ccccc4)cnn3c2)CCO1 (stereo not drawn) read Mtb cholesterol medium: -11.03%; Mtb glucose medium: 5.428% and 18.85%. With CS(=O)(=O)CCOCCNc1ccc2ccc(F)cc2n1 the screen gave Mtb cholesterol medium: 7.28%; Mtb glucose medium: 31.47%. For CNC(=O)C1(CCCc2ccncc2)CCCN1 (stereo not drawn) the result was Mtb cholesterol medium: -31.08%; Mtb glucose medium: -18.3%.

For CN1CCC(CN(C)C(=O)c2cc(C3CCCN3C)ccn2)CC1 (stereo not drawn) the result was Mtb cholesterol medium: -11.4%; Mtb glucose medium: 18.03%. With CS(=O)(=O)N1CCC2(CC1)CC(NCc1ccccn1)c1ccccc12 (stereo not drawn) the screen gave Mtb cholesterol medium: -7.512%; Mtb glucose medium: -2.846%. CC(C)c1nc(C(=O)N2CCCC(N)CC2)cs1 (stereo not drawn) read Mtb cholesterol medium: -14.51%; Mtb glucose medium: -13.39% and -5.432%. Nc1nccnc1C(=O)N1CCN(Cc2cccc3ccccc23)CC1 gave Mtb cholesterol medium: -21.49%; Mtb glucose medium: 3.943% and -57.55%.

Cc1nn(C)cc1C(=O)N1CCC(C(=O)c2nc3ccccc3s2)CC1 gave Mtb cholesterol medium: -2.016% and -3.348%; Mtb glucose medium: 3.574%. With Cc1cc(C)nc(C2CCCN2C(=O)c2cnccn2)n1 (stereo not drawn) the screen gave Mtb cholesterol medium: -4.789%; Mtb glucose medium: 5.784%. Result for O=C(NCCCN1CCOCC1)Nc1cnc2cc(Cl)ccc2c1O was Mtb cholesterol medium: -27.31%; Mtb glucose medium: -1.195%. CCc1ccc(S(=O)(=O)NCCOc2ccc3nnc(C)n3n2)s1 gave Mtb cholesterol medium: -5.932%; Mtb glucose medium: 4.892%.

COCC(=O)N[C@H]1C[C@@H](C(=O)NCCc2cccc(Cl)c2)N(C)C1 gave Mtb cholesterol medium: -5.651%; Mtb glucose medium: 0.991%. With CS(=O)(=O)N1CCC(Cc2cnc(Br)cn2)C1 (stereo not drawn) the screen gave Mtb cholesterol medium: -61.86%; Mtb glucose medium: -49.45%. For O=C(CC1CC1)N1CCC2(CC1)CC(Oc1ccccc1)CO2 (stereo not drawn) the result was Mtb cholesterol medium: -8.029%; Mtb glucose medium: 21.02% and 11.57%. COCCN1CCC2(CC1)CC(c1cccnc1)CO2.O=C(O)C(F)(F)F (stereo not drawn) gave Mtb cholesterol medium: 18.26%; Mtb glucose medium: 31.33%.

O=C(NCCNc1ncccn1)c1ccc(-c2ccco2)[nH]c1=O read Mtb cholesterol medium: 8.587%; Mtb glucose medium: 13.53%. For CCN(CC)CCNCC1CCOC(C)(C)C1 (stereo not drawn) the result was Mtb cholesterol medium: -8.375%; Mtb glucose medium: -11.04%. For COCCn1c2c(ccc1=O)CCN(C(=O)Cc1ccsc1)CC2 the result was Mtb cholesterol medium: -18.68%; Mtb glucose medium: -15.34%. COCCN1CCOCC2(CCCN(Cc3cccc(F)c3)C2)C1.O=C(O)C(F)(F)F.O=C(O)C(F)(F)F (stereo not drawn) read Mtb cholesterol medium: 7.007% and 13.68%; Mtb glucose medium: 1.578%.

O=C(NCc1ccncc1)Nc1cc(C(F)(F)F)c[nH]c1=O read Mtb cholesterol medium: -10.21%; Mtb glucose medium: 0.8527%. With CCC1CN(C)c2ccccc2CN1C(=O)Nc1ccccc1OC (stereo not drawn) the screen gave Mtb cholesterol medium: 16.58%; Mtb glucose medium: 1.15% and -47.55%. Result for COCCS(=O)(=O)N1CCN(c2cccc(O)c2)CC1 was Mtb cholesterol medium: 14.95%; Mtb glucose medium: 42.14%. COCCCN(Cc1cnc(-c2cccs2)nc1)C1CCN(C)CC1 gave Mtb cholesterol medium: -19.45%; Mtb glucose medium: -24.1% and -3.573%.

O=C(COc1ccc2c(c1)CCCC2=O)NCc1ccco1 read Mtb cholesterol medium: 21.04%; Mtb glucose medium: 27.91%. For Fc1ccc2[nH]c(C3CCCN3Cc3c[nH]cn3)nc2c1 (stereo not drawn) the result was Mtb cholesterol medium: 15.21%; Mtb glucose medium: 27.29%. Result for CCO[C@H]1CN(C)C[C@@H]1NC(=O)c1cc(C)nc2c(C)c(C)ccc12 was Mtb cholesterol medium: 4.824%; Mtb glucose medium: 34.52%. For CN(Cc1ccccc1CN1CCCC1)C(=O)c1c[nH]c(=O)[nH]1 the result was Mtb cholesterol medium: -4.376% and -6.311%; Mtb glucose medium: -9.962%.

O=C(O)C(F)(F)F.O=C(O)C(F)(F)F.c1cc(CN2CCCC3(COCCN(Cc4c[nH]nn4)C3)C2)cs1 (stereo not drawn) read Mtb cholesterol medium: 5.71%; Mtb glucose medium: -9.167% and -5.626%.

Some entries from above, unchanged:

Compound,Mtb cholesterol medium,Mtb glucose medium
CS(=O)(=O)N1CCC2(CC1)CC(NCc1ccccn1)c1ccccc12 (stereo not drawn),-7.512,-2.846
Cc1nn(C)cc1C(=O)N1CCC(C(=O)c2nc3ccccc3s2)CC1,-2.016 and -3.348,3.574
Cn1c(CS(=O)(=O)Cc2ccc(Cl)cc2)cc(=O)n(C)c1=O,0.05845 and -13.89,10.93